Results are given in words; binding and its absence hold for the method and conditions named. In cells and extracts the contact can be indirect. Some entries that bind do so weakly or less than the wild type. Tags and fused reporters may be left off the sequences shown.

By UniProt entry, the sequences of proteins in these tests, tags left out. Residues count along the entry.
UniProt P06473, residues 32-906: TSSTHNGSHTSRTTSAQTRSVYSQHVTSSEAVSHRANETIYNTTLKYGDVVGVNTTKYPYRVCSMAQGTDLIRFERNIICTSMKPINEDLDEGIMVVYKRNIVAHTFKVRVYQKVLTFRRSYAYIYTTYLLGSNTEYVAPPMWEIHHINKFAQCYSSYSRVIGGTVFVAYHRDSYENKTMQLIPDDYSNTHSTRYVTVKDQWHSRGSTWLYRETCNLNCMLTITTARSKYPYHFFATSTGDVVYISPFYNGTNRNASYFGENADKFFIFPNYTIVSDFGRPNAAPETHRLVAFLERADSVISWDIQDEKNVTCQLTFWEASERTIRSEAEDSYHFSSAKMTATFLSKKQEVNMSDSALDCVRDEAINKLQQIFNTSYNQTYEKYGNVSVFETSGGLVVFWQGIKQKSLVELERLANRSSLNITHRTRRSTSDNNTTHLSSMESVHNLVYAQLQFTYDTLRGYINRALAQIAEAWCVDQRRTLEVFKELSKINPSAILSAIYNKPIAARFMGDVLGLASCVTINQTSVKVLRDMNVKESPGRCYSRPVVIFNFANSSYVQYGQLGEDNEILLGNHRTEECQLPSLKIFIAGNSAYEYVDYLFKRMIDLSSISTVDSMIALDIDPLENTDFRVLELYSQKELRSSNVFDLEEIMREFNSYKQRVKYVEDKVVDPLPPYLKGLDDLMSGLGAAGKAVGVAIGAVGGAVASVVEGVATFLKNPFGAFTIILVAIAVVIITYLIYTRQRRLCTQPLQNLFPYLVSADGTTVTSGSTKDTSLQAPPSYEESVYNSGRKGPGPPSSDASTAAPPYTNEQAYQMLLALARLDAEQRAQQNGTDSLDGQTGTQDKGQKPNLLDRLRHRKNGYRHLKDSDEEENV
UniProt P17147: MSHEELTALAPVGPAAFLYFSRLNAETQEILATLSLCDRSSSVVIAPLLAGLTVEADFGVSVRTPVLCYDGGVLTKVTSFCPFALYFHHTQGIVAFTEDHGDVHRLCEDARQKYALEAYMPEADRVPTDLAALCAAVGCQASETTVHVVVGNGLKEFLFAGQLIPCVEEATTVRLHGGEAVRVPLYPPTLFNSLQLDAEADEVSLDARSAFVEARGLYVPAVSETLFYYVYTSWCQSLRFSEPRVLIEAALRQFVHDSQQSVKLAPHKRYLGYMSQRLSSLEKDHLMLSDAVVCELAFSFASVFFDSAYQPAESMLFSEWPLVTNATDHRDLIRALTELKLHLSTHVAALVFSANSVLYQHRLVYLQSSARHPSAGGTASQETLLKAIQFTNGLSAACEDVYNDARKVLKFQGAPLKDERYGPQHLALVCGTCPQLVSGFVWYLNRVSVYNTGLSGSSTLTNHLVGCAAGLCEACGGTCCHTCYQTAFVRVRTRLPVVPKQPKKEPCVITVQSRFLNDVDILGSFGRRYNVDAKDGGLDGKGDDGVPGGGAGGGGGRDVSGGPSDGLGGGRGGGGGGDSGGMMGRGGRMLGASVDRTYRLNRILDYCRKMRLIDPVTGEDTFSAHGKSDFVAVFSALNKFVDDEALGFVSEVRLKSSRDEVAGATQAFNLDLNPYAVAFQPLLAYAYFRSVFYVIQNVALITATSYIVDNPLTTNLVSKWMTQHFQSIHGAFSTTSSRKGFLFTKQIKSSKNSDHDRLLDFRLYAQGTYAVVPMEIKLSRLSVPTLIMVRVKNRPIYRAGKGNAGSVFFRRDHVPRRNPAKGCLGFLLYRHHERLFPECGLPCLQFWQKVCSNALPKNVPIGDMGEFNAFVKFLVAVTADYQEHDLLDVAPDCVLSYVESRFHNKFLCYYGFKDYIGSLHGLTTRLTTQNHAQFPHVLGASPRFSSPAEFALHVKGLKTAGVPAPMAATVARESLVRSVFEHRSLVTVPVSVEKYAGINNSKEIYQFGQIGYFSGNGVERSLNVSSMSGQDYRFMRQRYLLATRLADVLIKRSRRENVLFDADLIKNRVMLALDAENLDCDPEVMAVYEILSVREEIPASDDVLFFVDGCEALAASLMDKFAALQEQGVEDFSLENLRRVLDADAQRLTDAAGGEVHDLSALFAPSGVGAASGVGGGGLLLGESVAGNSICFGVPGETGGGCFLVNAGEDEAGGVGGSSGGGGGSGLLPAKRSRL

The source of these data is article PMC4492587.

In the assay the target is T1, soluble THY-1-His protein (a.a. 20-130) (UniProt P04216).
T1 sequence: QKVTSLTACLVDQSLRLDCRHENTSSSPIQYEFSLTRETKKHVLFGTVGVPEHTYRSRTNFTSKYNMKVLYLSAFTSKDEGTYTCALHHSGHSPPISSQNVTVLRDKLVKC
Put plainly: pull-down; THY-1-His or control VZV gE-His bound to Ni-NTA or Talon columns; HCMV-infected cell lysate (PBS with 0.1% NP-40, or 25 mM Tris, 15 mM NaCl and 0.1% NP-40) incubated at 4°C overnight; washed with PBS, eluted with 250 mM imidazole, immunoblotted; only the target purified. In general terms: Immunoblotting shows a protein as a band on a membrane.

Take “HCMV gB, full length (160 kD), from HCMV-infected cell lysate (from UniProt P06473 32-906)”: the binding result was “binds”.

Take “HCMV ICP8 (135 kD), from MRC-5 cells infected with HCMV AD169 (from UniProt P17147 1-1235)”: the binding result is “no binding”.
